# Measured values taken from PMC4871701.
# The chains behind the UniProt entries cited, without tags or fusion partners.
# UniProt P49597: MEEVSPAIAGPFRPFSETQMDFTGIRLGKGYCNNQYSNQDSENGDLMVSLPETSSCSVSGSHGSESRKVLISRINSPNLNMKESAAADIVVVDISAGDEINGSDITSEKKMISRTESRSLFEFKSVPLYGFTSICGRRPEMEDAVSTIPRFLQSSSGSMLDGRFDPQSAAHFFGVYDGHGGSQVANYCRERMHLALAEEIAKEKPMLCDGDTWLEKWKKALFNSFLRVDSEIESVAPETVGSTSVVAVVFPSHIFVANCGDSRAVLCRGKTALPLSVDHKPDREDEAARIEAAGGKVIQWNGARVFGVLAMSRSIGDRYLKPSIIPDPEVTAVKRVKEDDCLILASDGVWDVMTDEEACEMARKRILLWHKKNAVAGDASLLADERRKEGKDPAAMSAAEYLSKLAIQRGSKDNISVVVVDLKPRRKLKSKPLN
# UniProt O04719: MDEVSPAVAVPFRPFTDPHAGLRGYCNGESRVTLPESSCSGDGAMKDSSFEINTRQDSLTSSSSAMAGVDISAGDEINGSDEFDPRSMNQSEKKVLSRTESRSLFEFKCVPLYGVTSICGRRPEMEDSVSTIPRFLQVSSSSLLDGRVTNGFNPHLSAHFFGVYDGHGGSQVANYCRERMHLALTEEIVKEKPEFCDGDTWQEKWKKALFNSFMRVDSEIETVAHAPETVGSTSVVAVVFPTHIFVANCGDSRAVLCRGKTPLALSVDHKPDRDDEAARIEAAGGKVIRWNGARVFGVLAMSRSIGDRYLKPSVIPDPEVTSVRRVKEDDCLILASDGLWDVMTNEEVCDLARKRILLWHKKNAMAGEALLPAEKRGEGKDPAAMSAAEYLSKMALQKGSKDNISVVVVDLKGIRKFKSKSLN
# UniProt O82481: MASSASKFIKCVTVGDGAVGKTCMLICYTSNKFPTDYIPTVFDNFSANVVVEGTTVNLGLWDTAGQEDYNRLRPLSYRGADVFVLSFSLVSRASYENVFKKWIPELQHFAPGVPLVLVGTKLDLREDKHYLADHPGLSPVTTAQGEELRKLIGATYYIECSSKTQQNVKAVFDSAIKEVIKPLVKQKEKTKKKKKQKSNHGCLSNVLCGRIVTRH
# No constants are given. Whether binding was seen depends on the method and setting. For part of these data: Binding seen in cells or lysates may run through a third protein. Some binding calls cover weakened binding; strength is not graded here. Tags and fused reporters may be left off the sequences shown.
# Target: T1, RopGEF1 (yeast two-hybrid bait fusion) (Arabidopsis thaliana) (UniProt Q93ZY2)
# T1 sequence: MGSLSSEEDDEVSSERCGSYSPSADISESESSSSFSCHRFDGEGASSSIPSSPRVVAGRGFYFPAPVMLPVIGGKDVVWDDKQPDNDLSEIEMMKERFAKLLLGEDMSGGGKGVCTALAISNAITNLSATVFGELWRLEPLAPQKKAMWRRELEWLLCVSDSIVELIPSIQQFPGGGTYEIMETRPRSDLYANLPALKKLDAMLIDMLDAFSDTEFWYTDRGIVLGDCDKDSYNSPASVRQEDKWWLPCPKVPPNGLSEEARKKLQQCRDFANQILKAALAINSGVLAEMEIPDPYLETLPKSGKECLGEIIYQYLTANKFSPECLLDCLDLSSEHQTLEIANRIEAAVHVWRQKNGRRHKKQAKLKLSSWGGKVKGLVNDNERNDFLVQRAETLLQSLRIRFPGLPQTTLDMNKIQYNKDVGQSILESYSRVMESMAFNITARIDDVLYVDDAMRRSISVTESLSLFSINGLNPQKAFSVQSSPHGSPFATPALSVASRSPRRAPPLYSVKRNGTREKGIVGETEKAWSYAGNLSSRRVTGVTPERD
# Assay: two-hybrid; yeast PJ69-4A, USER-modified pGBT9 and pGADGH; growth on SD-L-W-H with 3 mM 3-AT for 6 d; ABI1/PYL1 without ABA
row,binding,Substance
1,binds,ABI1 (yeast two-hybrid fusion) (from UniProt P49597 1-434) (enzyme)
2,binds weakly,ABI2 (yeast two-hybrid fusion) (from UniProt O04719 1-423) (enzyme)
3,binds,ROP11 (yeast two-hybrid fusion) (from UniProt O82481 1-215)

# Target: T2, YFP^C-GEF1 (Arabidopsis thaliana) (UniProt Q93ZY2)
# T2 sequence: T1 sequence
# Assay: split reporter; BiFC with YFP^N and YFP^C fusions in N. benthamiana leaves, confocal imaging; fluorescence quantified relative to ROP11-GEF1
row,binding,Substance
1,binds,ROP11 (BiFC construct) (from UniProt O82481 1-215)
2,binds weakly,YFP^N-ABI2 (from UniProt O04719 1-423) (enzyme)
3,binds,YFP^N-ABI1 (from UniProt P49597 1-434) (enzyme)
